Among the data in paper doi:10.1101/230706 are binding values, retold here.

Protein sequences, listed by entry. Tags and fused reporters are not part of them. Lines headed by an entry give the natural chain unless they say otherwise; changes in a name come on top. Chains listed by the source or under a name are the forms on record and can include a tag or linker.
GFP-fused 53BP1 containing amino acids 1-34 and 1220-1711 (Q12888, form named): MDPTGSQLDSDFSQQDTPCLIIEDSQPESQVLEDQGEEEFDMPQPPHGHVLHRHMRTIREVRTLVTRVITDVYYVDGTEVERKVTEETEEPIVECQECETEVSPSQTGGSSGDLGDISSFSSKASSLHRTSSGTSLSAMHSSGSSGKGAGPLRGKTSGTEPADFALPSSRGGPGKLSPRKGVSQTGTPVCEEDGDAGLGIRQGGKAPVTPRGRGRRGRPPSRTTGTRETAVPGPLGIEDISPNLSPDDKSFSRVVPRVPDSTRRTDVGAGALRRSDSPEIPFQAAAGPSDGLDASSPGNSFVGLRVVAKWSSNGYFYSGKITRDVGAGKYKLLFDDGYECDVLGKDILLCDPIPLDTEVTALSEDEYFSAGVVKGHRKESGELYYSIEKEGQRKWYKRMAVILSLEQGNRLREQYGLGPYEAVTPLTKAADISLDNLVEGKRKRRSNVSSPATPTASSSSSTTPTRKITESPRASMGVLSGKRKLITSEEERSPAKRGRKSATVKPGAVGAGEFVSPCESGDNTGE
UniProt Q14980: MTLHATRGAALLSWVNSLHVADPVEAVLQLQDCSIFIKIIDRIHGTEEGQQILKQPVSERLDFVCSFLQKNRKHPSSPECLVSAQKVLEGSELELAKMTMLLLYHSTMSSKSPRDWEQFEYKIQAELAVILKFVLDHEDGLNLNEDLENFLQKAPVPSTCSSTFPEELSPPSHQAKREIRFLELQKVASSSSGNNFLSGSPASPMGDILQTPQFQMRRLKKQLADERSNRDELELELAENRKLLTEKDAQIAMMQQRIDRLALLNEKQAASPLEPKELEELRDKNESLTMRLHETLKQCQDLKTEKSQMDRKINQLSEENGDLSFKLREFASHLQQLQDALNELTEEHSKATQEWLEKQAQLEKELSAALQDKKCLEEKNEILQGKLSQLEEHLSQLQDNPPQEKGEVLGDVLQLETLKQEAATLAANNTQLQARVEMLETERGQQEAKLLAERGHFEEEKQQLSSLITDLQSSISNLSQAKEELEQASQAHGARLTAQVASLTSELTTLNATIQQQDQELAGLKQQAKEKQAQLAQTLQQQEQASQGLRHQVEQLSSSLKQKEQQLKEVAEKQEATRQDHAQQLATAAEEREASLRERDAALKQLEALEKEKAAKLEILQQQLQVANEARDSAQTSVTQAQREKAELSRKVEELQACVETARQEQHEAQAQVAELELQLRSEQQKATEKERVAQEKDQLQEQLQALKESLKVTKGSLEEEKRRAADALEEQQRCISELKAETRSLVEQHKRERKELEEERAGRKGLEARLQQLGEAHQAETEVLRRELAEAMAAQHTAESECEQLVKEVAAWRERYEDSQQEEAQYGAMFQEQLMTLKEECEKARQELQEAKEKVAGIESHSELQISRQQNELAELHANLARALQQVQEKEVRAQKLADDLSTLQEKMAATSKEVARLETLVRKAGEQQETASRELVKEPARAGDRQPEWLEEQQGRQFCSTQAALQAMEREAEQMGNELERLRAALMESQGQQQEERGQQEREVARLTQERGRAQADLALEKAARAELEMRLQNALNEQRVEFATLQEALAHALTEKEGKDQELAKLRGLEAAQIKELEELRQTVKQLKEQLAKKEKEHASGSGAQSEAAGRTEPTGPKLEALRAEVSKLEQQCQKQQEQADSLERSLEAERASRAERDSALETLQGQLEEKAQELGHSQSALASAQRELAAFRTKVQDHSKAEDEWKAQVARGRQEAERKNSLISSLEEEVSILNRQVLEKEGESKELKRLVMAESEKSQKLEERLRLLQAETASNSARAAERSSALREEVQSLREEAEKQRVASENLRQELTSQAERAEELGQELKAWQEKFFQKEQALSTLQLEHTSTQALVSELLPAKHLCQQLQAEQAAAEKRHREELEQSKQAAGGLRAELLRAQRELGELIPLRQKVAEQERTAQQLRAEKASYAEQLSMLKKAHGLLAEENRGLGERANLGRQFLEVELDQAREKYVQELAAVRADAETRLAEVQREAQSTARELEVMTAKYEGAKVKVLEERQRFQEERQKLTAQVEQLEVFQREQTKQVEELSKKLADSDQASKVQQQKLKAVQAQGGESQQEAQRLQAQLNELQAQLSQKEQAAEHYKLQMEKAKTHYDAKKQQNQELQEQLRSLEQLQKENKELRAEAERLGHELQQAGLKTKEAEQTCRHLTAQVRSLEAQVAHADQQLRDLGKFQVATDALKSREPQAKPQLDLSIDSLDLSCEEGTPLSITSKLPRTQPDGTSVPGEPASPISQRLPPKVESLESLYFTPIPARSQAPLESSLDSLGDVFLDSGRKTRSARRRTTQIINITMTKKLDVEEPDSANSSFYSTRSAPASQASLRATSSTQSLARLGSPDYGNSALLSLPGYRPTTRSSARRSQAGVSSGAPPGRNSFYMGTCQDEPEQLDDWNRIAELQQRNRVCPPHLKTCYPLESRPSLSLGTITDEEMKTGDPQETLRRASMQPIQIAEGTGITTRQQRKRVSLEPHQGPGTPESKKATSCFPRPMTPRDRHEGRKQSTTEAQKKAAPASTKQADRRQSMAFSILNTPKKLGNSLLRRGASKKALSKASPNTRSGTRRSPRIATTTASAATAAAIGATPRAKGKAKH

The test has as its target GFP-fused 53BP1 containing amino acids 1-34 and 1220-1711 (UniProt Q12888). Kind of test: affinity purification with mass spectrometry.

No constants are given. Whether binding was seen depends on the method and setting. Binding seen in cells or lysates may run through a third protein. Here binding means that the protein was enriched with, or labelled near, the bait; the list need not be complete.

Regarding “endogenous nuclear mitotic apparatus protein (NuMA) (from UniProt Q14980 1-2115)”, the binding entry is reported as “binds”.
